# Data as given in the supplement of paper PMC11098740.
# Structures can show the parent of a compound that is named as a salt. ± gives the standard deviation of the averaged measurements. This is one part of the list. Many values rest on one well or one pass, so single values are uncertain.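 The assay uses a mixed pool of 41 HAP1 clones in which 61 cancer-associated proteins bear intron-inserted fluorescent tags, and clones are distinguished by image pattern. Results are compared against DMSO-treated control wells, and the BRD4 degrader dBET6 is the positive control.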
# Biological target: BRD4 (intron 10 mScarlet tag, HAP1) (UniProt O60885)
# Test: BRD4 median nuclear fluorescence intensity change vs DMSO (log2 fold change); higher = more BRD4 protein
# Conditions: 6 h
row,SMILES,BRD4 median nuclear fluorescence intensity change (log2)
1,Nc1ccn([C@H]2CC[C@@H](COP(=O)(O)OP(=O)(O)OP(=O)(O)O)O2)c(=O)n1 [dideoxycytidine 5'-triphosphate (ddctp)] (10 µM),0.173
2,CN1C(=O)CC(c2ccccc2)C1=O (centres undefined) [phensuximide] (10 µM),0.0743
3,CNC(=O)c1cc(Oc2ccc(NC(=O)Nc3ccc(Cl)c(C(F)(F)F)c3)c(F)c2)ccn1 [regorafenib] (20 µM),0.0492
4,CS(=O)(=O)OCCCCOS(C)(=O)=O [busulfan] (20 µM),0.0615
5,N[C@@H](CC(=O)N1CCn2c(nnc2C(F)(F)F)C1)Cc1cc(F)c(F)cc1F [sitagliptin] (10.0003 µM),0.0329
6,COCCCOc1cc(C[C@@H](C[C@H](N)[C@@H](O)C[C@H](C(=O)NCC(C)(C)C(N)=O)C(C)C)C(C)C)ccc1OC [aliskiren] (10.0003 µM),0.0662
7,CC(C)NCC(O)COc1ccc(CC(N)=O)cc1 (centres undefined) [atenolol] (10 µM),0.1
8,CO[C@H]1C[C@@H]2CC[C@@H](C)[C@@](O)(O2)C(=O)C(=O)N2CCCC[C@H]2C(=O)O[C@H]([C@H](C)C[C@@H]2CC[C@@H](OC(=O)C(C)(CO)CO)[C@H](OC)C2)CC(=O)[C@H](C)/C=C(\C)[C@@H](O)[C@@H](OC)C(=O)[C@H](C)C[C@H](C)/C=C/C=C/C=C/1C [temsirolimus] (20 µM),-0.0976
9,CC[C@]1(O)C[C@@H]2CN(CCc3c([nH]c4ccccc34)[C@@](C(=O)OC)(c3cc4c(cc3OC)N(C)[C@H]3[C@@](O)(C(=O)OC)[C@H](OC(C)=O)[C@]5(CC)C=CCN6CC[C@]43[C@@H]65)C2)C1 [vinblastine] (20 µM),0.0812
10,C/C(O)=C(\C#N)C(=O)Nc1ccc(C(F)(F)F)cc1 [teriflunomide (a77 1726)] (10 µM),0.114
11,C#CCC(Cc1cnc2nc(N)nc(N)c2n1)c1ccc(C(=O)N[C@@H](CCC(=O)O)C(=O)O)cc1 (some centres undefined) [pralatrexate] (0.0871 µM),-0.0234 ± 0.045
12,CCNC(=O)[C@@H]1CCCN1C(=O)[C@H](CCCNC(=N)N)NC(=O)[C@H](CC(C)C)NC(=O)[C@@H](CC(C)C)NC(=O)[C@H](Cc1ccc(O)cc1)NC(=O)[C@H](CO)NC(=O)[C@H](Cc1c[nH]c2ccccc12)NC(=O)[C@H](Cc1c[nH]cn1)NC(=O)[C@@H]1CCC(=O)N1 [leuprolide] (20 µM),-0.0111
13,O=c1n(CCCN2CCN(c3cccc(Cl)c3)CC2)nc2ccccn12 [trazodone] (10 µM),0.0948
14,COc1c(C)c2c(c(O)c1C/C=C(\C)CCC(=O)O)C(=O)OC2 [mycophenolic acid] (10 µM),-0.00152
15,COc1cc(Nc2ncc3c(n2)-c2ccc(Cl)cc2C(c2c(F)cccc2OC)=NC3)ccc1C(=O)O [alisertib] (10 µM),0.0599
16,NC(=O)c1cnccn1 [pyrazinamide] (10 µM),0.101
17,C[N+](C)(C)CCOC(=O)CCC(=O)OCC[N+](C)(C)C [succinylcholine chloride] (10 µM),-0.019
18,CCOc1cc2ncc(C#N)c(Nc3ccc(OCc4ccccn4)c(Cl)c3)c2cc1NC(=O)/C=C/CN(C)C [neratinib] (10 µM),0.004
19,c1cnc2cc3c(cc2n1)[C@@H]1CNC[C@H]3C1 [varenicline] (10 µM),0.0704
20,C[C@]12C=CC(=O)C=C1CC[C@@H]1[C@@H]2[C@@H](O)C[C@@]2(C)[C@H]1CC[C@]2(O)C(=O)CO [prednisolone] (10 µM),0.132

row,SMILES,BRD4 median nuclear fluorescence intensity change (log2)
1,C[C@]12C=CC(=O)C=C1CC[C@@H]1[C@@H]2[C@@H](O)C[C@@]2(C)[C@H]1CC[C@]2(O)C(=O)CO [prelone] (1.1755 µM),0.147
2,N#Cc1ccc(C(c2ccc(C#N)cc2)n2cncn2)cc1 [letrozole] (20 µM),0.0397
3,Cc1ccc(NC(=O)c2ccc(CN3CC[C@H](N(C)C)C3)c(C(F)(F)F)c2)cc1Nc1nccc(-c2cncnc2)n1 [bafetinib] (10 µM),0.0393
4,O.O.O.O.O=C([O-])CC(O)(CC(=O)[O-])C(=O)[O-].[Li+].[Li+].[Li+] [lithium citrate] (10 µM),0.0359
5,CC(=O)S[C@@H]1CC2=CC(=O)CC[C@]2(C)[C@H]2CC[C@@]3(C)[C@@H](CC[C@@]34CCC(=O)O4)[C@H]12 [spironolactone] (10.00018646 µM),0.0472
6,NC(=O)c1ncn([C@@H]2O[C@H](CO)[C@@H](O)[C@H]2O)n1 [ribavirin] (10 µM),0.0175
7,NCCNc1ccc(NCCN)c2c1C(=O)c1ccncc1C2=O [pixantrone] (10 µM),0.0327
8,CC(C)[C@@H]1NC(=O)[C@H](CCCCN)NC(=O)[C@@H](Cc2c[nH]c3ccccc23)NC(=O)[C@H](Cc2ccc(O)cc2)NC(=O)[C@@H](NC(=O)[C@H](N)Cc2ccc3ccccc3c2)CSSC[C@@H](C(=O)N[C@H](C(N)=O)[C@@H](C)O)NC1=O [lanreotide acetate] (20 µM),-0.0745
9,Nc1nc(F)nc2c1ncn2[C@@H]1O[C@H](COP(=O)(O)O)[C@@H](O)[C@@H]1O [fludarabine phosphate] (20 µM),0.192
10,CO[C@H]1O[C@@H]2O[C@@]3(C)CC[C@H]4[C@H](C)CC[C@@H]([C@H]1C)[C@@]24OO3 [artemether] (10 µM),0.0669
11,C#C[C@]1(O)CC[C@H]2[C@@H]3CCc4cc(O)ccc4[C@H]3CC[C@@]21C [ethinyl estradiol] (9.99913 µM),0.17
12,CS(=O)(=O)c1ccc(C(=O)Nc2ccc(Cl)c(-c3ccccn3)c2)c(Cl)c1 [vismodegib] (20 µM),-0.023
13,CN(Cc1cnc2nc(N)nc(N)c2n1)c1ccc(C(=O)N[C@@H](CCC(=O)O)C(=O)O)cc1 [methotrexate] (0.04575 µM),-0.0283
14,C[N+]1(CCCCC[N+]2(C)CCCC2)CCCC1 [pentolinium tartrate] (10 µM),0.146
15,COc1cccc2c1C(=O)c1c(O)c3c(c(O)c1C2=O)C[C@@](O)(C(=O)CO)C[C@@H]3O[C@H]1C[C@H](N)[C@H](O)[C@H](C)O1 [doxorubicin] (0.09215 µM),0.077
16,Cc1nc(-c2ccc(OCC(C)C)c(C#N)c2)sc1C(=O)O [febuxostat] (10 µM),0.028
17,NS(=O)(=O)c1cc(Cl)c(Cl)c(S(N)(=O)=O)c1 [dichlorphenamide] (10 µM),0.0335
18,NCCCC(N)(C(=O)O)C(F)F (centres undefined) [eflornithine] (10 µM),0.113
19,C[C@H](N[C@@H](CCc1ccccc1)C(=O)O)C(=O)N1CCC[C@H]1C(=O)O [enalaprilat] (9.99909 µM),-0.061

# 2 records picked at random from the list so far:
row,SMILES,BRD4 median nuclear fluorescence intensity change (log2)
4,O.O.O.O.O=C([O-])CC(O)(CC(=O)[O-])C(=O)[O-].[Li+].[Li+].[Li+] [lithium citrate] (10 µM),0.0359
10,CO[C@H]1O[C@@H]2O[C@@]3(C)CC[C@H]4[C@H](C)CC[C@@H]([C@H]1C)[C@@]24OO3 [artemether] (10 µM),0.0669
